The chains are these.
B1: A-D5.16 in human IgG1null format (antibody, V domains shown)
VH: EVQLVQSGAEVKKPGESLKISCKGSGYSFTNYYIFWVRQMPGKGLEWMGIINPVDGDTRYSPSFQGQVTISADKSISTAYLQWSSLKASDTAMYYCARGGYTMDRWGQGTLVTVSS
VL: DIVMTQSPLSLPVTPGEPASISCRSSQSLLHSAGYNYLHWYLQKPGQSPQLLIYKVSNRLSGVPDRFSGSGSGTDFTLKISRVEAEDVGVYYCFQNTHTPRTFGQGTKVEIK
B2: A-D5.4 in human IgG1null format (antibody, V domains shown)
VH: EVQLVQSGAEVKKPGESLKISCKGSGYTFTNYYIFWVRQMPGKGLEWMGIINPVDGDTNYNPSFQGQVTISADKSISTAYLQWSSLKASDTAMYYCARGGYTMDRWGQGTLVTVSS
VL: DIVMTQSPLSLPVTPGEPASISCRSSQSLLHSNGYNYLHWYLQKPGQSPQLLIYKVSNRLSGVPDRFSGSGSGTDFTLKISRVEAEDVGVYYCFQNTHTPRTFGQGTKVEIK
B3: mVH/mVL (chimeric VxP037) in human IgG1null format (antibody, V domains shown)
VH: EVQLQQFGAELVKPGASMKLSCKASGYTFTNYYVFWVKQRPGQGLEWIGDINPVNGDTNFNEKFKNKATLTVDKSSTTTYLQLSSLTSEDSAVYYCTRGGYTMDYWGQGTLVTVSS
VL: DVVMTQTPLSLSVSLGDQASISCRSSQSLVHSNGNTYLHWYLQKPGQSPKLLIYKVSYRFSGVPDRFSGSGSGTDFTLKISRVEAEDLGVYFCSQNTHVPRTFGQGTKVEIK
B4: A-D5 in human IgG1null format (antibody, V domains shown)
VH: EVQLVQSGAEVKKPGESLKISCKGSGYTFTNYYIFWVRQMPGKGLEWMGIINPVDGDTNYNPSFQGQVTISADKSISTAYLQWSSLKASDTAMYYCARGGYTMDRWGQGTLVTVSS
VL: DIVMTQSPLSLPVTPGEPASISCRSSQSLLHSNGYTYLHWYLQKPGQSPQLLIYKVSNRLSGVPDRFSGSGSGTDFTLKISRVEAEDVGVYYCFQNTHTPRTFGQGTKVEIK
B5: G-B6 in human IgG1null format (antibody, V domains shown)
VH: EVQLVQSGAEVKKPGESLKISCKGSGYSFTNYYIFWVRQMPGKGLEWIGDINPVNGDTNFSPSFQGQVTISADKSISTAYLQWSSLKASDTAMYYCARGGYTMDKWGQGTLVTVSS
VL: DIVMTQSPLSLPVTPGEPASISCRSSQSLVHSNGYTYLHWYLQKPGQSPQLLIYKGSYRASGVPDRFSGSGSGTDFTLKISRVEAEDVGVYYCSQNTQTPRTFGQGTKVEIK
B6: D-H3 in human IgG1null format (antibody, V domains shown)
VH: EVQLVQSGAEVKKPGESLKISCKGSGYSFTNYYIFWVRQMPGKGLEWMGDINPVNGDTNYSPSFQGQVTISADKSISTAYLQWSSLKASDTAMYYCARGGYTPDYWGQGTLVTVSS
VL: DIVMTQSPLSLPVTPGEPASISCRSSQSLLHSNGYNYLHWYLQKPGQSPQLLIYKGSNRFSGVPDRFSGSGSGTDFTLKISRVEAEDVGVYYCSQNLHVPRTFGQGTKVEIK

These are yes or no findings as the source states them, for the method shown.

The first experiment addresses Insulin. Kind of experiment: development risk ELISA on coated Insulin, FIG. 14A.
B1: the binding result is listed as “no binding”.
As to B2, the binding entry was “no binding”.

The target in another experiment is Insulin. The experiment in a line: development risk ELISA on coated Insulin, FIG. 8A. In general terms: In an ELISA, binding on a coated surface is turned into a signal by an enzyme label.
In the case of B3, the binding entry is reported as “no binding”.
Consider B4, for which the binding entry was “no binding”.
The same measure, in the same setting: to B5 belongs “no binding”.
The same measure, in the same setting: then B6, with “no binding”.

Values taken from patent US20200277375A1.
